Laboratory results from patent US5688913A, “CS-1 peptidomimetics, compositions and methods of using the same” (Cytel Corporation, priority 1995, dated 1997).
Not every detail of the peptide structures is certain; ends, links or a residue may be inferred. Square brackets hold non-standard residues; d marks the D form. Peptide text beside a SMILES is read from it. * marks the point of attachment. X9 = O=C(CCCC[C@@H]1SC[C@@H]2NC(=O)N[C@@H]21)NCCCCCCN*; PhAc = O=C(Cc1ccccc1)*

Amino acid sequences for entries named in this document (tags omitted). Residues count along the entry.
UniProt P13612, 34-1032: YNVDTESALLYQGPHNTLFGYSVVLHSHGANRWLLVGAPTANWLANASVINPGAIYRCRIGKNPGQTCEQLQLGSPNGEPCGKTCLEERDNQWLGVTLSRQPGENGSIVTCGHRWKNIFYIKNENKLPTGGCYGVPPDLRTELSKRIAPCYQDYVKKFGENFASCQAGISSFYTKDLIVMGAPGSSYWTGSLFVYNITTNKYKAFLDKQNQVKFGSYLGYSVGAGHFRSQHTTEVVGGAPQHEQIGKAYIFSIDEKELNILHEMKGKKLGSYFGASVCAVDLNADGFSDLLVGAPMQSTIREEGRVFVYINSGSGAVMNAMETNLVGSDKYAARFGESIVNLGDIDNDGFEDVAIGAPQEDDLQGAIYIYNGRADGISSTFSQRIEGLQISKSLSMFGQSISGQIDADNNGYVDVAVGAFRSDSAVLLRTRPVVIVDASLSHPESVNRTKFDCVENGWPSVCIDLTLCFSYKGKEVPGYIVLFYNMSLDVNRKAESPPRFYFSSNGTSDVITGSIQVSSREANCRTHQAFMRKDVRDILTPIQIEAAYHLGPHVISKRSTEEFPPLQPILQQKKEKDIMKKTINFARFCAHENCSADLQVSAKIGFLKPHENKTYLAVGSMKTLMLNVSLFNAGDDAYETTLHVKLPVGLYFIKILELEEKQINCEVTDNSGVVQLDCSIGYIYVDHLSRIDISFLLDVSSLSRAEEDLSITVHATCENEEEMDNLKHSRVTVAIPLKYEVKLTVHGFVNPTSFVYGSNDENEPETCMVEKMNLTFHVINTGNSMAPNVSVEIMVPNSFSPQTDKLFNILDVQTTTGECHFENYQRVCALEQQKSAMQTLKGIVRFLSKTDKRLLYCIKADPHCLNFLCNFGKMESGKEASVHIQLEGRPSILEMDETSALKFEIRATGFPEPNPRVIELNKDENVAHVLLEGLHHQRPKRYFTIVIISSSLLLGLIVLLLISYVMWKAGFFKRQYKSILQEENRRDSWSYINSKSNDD

Biological target: VLA-4 (Homo sapiens, UniProt P05556+P13612)
Assay type: cell-based
Parameters: host or cells: Jurkat (human T lymphoblastic line)
Procedure: Binding inhibition is measured here as a concentration of peptide that inhibits one-half the binding between a standard number of Jurkat cells and a standard amount of CS-1 peptide bound to the surface of a microtiter plate well. Those concentrations are conveniently expressed as IC50 values, smaller numbers indicating a lower concentration required to inhibit 50 percent binding and therefore greater potency. Further specifics of this assay are provided hereinafter.
Jurkat cells (ATCC TIB 152), a human T lymphoblastic line, labeled with ^51 chromium were used to assay in vitro binding inhibition provided by various peptides discussed herein.
The plates were prepared as follows: The 25-mer CS-1 peptide (SEQ ID NO:1) dissolved at 0.5-1 μg/ml in a buffer of 0.1M NaHCO3 at pH 9.5 that also contained 10 μg/ml of bovine serum albumin (BSA) or a conjugate of the CS-1 peptide linked to ovalbumin (CS-1-OVA) dissolved at 1-2.5 μg/ml in the same buffer was used as the substrate. Each well of the microtiter plates was coated with 50 μl of substrate or buffer alone for controls. The wells were permitted to dry out completely and were then rinsed twice with PBS at pH 7.4. Non-specific binding sites of each well were then blocked using 200 μl per well of RPMI/1 percent BSA for two hours at room temperature. Both solid phase-affixed substrates provided similar results. […]

CC(C)C[C@H](NC(=O)Cc1ccccc1)C(=O)N[C@@H](CC(=O)O)C(=O)N[C@@H](Cc1ccccc1)C(=O)N1CCC[C@@H]1C(=O)NCCCCCCNC(=O)CCCC[C@@H]1SC[C@@H]2NC(=O)N[C@@H]21 (PhAc-LDF[dP]-X9)
binding inhibition compared with the standard 10-mer, in words: substantially no inhibition of binding
